Patent EP1752149A1 (LABORATORIOS DEL DR. ESTEVE, S.A., priority 2005, dated 2007)
For at least one compound, name, drawing or mass did not settle the structure.

Experiment: In-vivo bioassay system for determination of cannabinoid activity (hot-plate test, hypothermia, catalepsy, sedation)
Conditions: conclusion from table II

SMILES: O=C(NN1CCCCC1)C1=NN(c2ccc(Cl)cc2Cl)C(c2ccc(Cl)cc2)C1 (stereo not shown) [Example 1, N-piperidinyl-5-(4-chlorophenyl)-1-(2,4-dichlorophenyl)-4,5-dihydro-1H-pyrazole-3-carboxamide]
- cannabinoid activity in-vivo, kind of effect in words: CB1 antagonist
